Source: the supplement of paper PMC10849652
This is one part of the list.

Chains of the proteins cited; added tags and fusions are not shown. Lines headed by an entry give the natural chain unless they say otherwise; changes in a name come on top.
UniProt Q9NXC5: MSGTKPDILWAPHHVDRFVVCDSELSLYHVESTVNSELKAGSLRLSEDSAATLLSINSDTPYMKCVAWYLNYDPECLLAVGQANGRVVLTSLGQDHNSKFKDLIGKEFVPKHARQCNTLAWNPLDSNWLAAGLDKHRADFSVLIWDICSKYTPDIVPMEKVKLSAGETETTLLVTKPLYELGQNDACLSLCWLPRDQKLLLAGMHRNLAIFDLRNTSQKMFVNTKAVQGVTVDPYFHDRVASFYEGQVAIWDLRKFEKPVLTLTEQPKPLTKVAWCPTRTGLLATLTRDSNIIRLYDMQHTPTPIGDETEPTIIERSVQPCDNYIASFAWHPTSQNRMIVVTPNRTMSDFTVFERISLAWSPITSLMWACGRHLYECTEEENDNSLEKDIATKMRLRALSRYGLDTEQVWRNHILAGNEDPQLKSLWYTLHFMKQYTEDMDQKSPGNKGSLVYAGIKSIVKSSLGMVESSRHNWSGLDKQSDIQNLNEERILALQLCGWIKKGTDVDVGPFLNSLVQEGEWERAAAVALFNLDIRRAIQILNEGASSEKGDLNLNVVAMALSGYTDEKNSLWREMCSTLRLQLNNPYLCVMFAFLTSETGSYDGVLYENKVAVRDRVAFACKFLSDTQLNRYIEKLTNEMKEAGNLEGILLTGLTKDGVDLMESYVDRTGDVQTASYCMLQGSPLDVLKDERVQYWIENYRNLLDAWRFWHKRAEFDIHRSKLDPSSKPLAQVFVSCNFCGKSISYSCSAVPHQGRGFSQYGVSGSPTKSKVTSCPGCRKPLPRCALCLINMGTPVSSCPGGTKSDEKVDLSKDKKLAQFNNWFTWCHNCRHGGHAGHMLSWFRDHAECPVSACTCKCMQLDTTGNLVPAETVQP
UniProt Q13015: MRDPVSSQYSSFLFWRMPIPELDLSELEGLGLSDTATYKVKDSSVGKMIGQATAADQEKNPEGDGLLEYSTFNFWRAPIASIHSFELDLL
UniProt Q15014, whole entry, looked up: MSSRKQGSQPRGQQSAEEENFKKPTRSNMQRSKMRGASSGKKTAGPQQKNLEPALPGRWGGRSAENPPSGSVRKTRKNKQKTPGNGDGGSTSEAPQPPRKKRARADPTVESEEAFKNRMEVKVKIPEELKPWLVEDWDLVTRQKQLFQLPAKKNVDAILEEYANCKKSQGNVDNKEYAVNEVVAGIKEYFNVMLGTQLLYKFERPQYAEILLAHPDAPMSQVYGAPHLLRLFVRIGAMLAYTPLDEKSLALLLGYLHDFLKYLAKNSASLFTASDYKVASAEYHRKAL
UniProt P29372, whole entry, looked up: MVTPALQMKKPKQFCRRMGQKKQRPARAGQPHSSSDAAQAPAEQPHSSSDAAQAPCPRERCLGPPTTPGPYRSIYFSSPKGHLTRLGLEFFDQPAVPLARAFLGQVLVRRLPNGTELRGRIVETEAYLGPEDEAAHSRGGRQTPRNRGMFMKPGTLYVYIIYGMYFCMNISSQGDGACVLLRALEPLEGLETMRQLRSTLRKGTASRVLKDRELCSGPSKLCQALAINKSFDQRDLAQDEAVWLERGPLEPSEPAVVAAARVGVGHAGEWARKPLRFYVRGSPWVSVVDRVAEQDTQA
UniProt Q9Y5U8: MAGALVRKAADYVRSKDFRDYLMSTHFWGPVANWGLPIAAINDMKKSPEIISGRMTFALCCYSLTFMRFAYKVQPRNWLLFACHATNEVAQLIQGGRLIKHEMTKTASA
UniProt Q5XKP0: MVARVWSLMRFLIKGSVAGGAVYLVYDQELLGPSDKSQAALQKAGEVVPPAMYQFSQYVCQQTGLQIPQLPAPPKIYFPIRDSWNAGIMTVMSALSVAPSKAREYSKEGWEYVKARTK
UniProt Q9BWT6: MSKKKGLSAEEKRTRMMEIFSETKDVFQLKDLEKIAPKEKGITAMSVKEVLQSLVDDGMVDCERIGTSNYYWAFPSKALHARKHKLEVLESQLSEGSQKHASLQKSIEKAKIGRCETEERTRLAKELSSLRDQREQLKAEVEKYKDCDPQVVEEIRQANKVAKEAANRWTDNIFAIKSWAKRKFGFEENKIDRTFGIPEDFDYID
UniProt Q9Y3A3: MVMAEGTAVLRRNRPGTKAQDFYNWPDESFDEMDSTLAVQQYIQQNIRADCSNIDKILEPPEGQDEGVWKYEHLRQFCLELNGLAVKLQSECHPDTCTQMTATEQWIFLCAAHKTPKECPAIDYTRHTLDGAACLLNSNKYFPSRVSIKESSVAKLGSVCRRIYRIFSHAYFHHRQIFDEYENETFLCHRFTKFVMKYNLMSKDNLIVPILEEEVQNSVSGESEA
UniProt Q09328: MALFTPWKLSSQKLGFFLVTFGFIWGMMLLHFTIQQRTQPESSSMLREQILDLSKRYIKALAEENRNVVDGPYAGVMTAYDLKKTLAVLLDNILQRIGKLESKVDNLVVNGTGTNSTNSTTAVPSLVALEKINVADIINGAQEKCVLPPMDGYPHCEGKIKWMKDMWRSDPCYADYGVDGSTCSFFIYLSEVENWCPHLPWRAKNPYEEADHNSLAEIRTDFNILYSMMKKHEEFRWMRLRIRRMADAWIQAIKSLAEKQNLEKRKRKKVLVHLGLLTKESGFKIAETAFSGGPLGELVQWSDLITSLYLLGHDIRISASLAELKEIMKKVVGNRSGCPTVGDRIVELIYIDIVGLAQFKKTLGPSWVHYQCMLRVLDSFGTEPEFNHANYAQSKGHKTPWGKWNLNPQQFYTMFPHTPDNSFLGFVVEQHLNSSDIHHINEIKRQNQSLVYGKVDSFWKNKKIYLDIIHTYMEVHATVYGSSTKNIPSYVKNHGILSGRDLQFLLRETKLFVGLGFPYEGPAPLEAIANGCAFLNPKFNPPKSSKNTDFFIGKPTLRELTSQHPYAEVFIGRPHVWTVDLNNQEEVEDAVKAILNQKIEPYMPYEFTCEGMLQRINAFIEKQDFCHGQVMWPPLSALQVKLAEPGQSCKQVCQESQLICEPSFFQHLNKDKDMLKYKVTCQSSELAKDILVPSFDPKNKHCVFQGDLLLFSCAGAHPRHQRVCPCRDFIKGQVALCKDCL
UniProt Q03111: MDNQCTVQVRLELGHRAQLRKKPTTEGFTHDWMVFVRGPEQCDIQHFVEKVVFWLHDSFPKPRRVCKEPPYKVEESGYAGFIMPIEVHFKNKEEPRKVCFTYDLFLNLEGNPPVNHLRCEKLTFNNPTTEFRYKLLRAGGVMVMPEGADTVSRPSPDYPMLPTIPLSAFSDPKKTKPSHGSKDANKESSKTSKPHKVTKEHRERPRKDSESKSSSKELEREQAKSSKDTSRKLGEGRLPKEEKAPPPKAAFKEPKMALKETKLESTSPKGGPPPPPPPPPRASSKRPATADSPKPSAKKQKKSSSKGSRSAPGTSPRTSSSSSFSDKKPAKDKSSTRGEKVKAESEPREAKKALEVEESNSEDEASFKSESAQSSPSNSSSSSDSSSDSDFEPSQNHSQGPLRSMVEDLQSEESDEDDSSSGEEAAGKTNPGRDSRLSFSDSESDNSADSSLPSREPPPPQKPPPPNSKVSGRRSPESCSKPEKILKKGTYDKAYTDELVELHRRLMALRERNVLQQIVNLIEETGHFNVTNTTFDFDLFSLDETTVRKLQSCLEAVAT
UniProt Q96BX8: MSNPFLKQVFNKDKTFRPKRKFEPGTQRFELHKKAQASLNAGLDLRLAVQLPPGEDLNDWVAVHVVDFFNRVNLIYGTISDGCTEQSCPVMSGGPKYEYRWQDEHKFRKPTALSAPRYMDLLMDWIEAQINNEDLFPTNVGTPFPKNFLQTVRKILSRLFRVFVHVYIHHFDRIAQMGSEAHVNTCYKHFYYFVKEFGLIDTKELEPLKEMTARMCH
UniProt Q9BVC4, whole entry, looked up: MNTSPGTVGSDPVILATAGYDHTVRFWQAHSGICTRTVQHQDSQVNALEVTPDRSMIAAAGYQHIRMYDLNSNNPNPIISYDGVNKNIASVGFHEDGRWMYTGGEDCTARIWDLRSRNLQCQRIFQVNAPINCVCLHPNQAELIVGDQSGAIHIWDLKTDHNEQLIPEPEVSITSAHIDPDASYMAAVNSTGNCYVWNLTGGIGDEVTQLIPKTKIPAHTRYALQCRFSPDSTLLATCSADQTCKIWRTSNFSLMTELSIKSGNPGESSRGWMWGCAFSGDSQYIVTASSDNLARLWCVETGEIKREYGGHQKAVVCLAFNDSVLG
UniProt Q6WCQ1: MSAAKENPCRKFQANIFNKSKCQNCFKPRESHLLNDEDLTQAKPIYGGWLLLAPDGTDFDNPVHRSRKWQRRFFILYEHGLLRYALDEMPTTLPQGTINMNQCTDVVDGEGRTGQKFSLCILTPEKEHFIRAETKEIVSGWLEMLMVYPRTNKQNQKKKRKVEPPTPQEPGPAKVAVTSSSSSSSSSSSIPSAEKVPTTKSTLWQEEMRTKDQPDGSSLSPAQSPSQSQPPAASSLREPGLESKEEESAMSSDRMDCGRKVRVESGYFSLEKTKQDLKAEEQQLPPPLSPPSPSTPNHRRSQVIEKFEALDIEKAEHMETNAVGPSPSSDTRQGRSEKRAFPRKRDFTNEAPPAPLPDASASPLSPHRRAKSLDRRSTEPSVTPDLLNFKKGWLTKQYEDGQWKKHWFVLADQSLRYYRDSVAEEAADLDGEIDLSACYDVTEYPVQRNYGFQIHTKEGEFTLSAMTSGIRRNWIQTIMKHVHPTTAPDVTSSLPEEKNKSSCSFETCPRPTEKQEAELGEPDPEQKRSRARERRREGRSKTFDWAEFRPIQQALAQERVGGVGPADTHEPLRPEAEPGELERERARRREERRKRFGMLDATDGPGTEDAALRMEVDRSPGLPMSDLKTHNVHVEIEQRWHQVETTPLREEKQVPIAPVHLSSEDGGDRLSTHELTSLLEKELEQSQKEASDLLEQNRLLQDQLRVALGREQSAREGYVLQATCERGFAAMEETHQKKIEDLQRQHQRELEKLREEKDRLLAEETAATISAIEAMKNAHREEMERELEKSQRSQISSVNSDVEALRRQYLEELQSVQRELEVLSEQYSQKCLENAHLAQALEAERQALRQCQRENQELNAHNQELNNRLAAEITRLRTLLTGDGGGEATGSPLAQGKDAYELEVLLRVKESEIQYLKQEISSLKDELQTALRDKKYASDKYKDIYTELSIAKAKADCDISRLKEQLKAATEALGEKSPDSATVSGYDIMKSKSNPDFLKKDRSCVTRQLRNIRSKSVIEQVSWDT
UniProt Q8TD10: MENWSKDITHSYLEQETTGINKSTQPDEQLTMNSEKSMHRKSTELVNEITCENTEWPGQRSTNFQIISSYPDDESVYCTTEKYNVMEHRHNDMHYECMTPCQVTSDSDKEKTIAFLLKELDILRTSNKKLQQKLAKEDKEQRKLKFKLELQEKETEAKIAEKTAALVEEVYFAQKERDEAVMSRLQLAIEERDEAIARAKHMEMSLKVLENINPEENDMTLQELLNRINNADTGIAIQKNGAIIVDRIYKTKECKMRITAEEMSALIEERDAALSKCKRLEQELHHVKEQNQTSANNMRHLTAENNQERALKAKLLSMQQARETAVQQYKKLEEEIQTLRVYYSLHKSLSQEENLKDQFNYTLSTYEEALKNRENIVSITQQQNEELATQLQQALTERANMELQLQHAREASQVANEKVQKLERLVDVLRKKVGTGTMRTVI
UniProt Q9H081: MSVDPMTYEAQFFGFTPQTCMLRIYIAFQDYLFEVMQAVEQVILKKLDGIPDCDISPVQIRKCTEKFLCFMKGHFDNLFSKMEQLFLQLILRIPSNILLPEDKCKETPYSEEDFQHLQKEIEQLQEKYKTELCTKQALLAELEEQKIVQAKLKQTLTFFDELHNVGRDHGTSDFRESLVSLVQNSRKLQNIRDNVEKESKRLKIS
UniProt Q6NTE8: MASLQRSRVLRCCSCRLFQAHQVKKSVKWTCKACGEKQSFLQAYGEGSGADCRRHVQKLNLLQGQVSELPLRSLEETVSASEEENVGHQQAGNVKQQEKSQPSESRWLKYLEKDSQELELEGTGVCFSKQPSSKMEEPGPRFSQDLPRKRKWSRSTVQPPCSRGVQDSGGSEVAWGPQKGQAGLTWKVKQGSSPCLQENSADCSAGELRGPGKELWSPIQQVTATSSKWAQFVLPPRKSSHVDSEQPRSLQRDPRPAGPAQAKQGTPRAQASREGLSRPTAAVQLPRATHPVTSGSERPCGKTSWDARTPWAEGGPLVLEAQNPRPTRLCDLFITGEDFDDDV
UniProt Q9BV20: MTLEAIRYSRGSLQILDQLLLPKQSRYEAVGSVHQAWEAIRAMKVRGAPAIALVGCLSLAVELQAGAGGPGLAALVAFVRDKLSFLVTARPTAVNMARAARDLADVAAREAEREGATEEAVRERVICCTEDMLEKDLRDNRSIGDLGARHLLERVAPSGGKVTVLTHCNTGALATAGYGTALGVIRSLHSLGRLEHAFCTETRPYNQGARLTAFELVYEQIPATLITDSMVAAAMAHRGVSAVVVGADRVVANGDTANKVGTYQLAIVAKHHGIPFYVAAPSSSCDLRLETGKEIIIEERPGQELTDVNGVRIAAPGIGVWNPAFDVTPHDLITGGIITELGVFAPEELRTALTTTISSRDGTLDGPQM
UniProt Q99547: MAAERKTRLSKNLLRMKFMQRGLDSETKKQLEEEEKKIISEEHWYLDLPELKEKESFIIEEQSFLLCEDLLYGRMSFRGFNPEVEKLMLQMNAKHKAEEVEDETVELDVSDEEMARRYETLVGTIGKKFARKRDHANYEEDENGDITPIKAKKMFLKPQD

Experiments:
Assay in all cases: log2 fold change, soluble protein after heating vs DMSO (PISA); higher = thermal stabilisation; K562 lysate, 10 uM; active = over 0.2 and 3.5 SD of the protein, either way, in both replicates (recomputed)
lapatinib = compound: CS(=O)(=O)CCNCc1ccc(-c2ccc3ncnc(Nc4ccc(OCc5cccc(F)c5)c(Cl)c4)c3c2)o1 [lapatinib]
In short: (§1)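 K562 pellets were dounce-homogenised in PBS pH 7.4 with 1 mM MgCl2, and the crude extract at 1 mg/mL protein was treated with 10 μM compound for 30 min. Aliquots were heated for 3 min across 48°C-58°C, pooled, and brought to 0.5% NP-40 at 4°C; soluble protein was the supernatant after 21,000xg for 90 min. Soluble protein was quantified by TMTpro 16plex LC-MS/MS with channel sums equalised, and reported as log2 fold change in thermal stability against DMSO controls, with values from duplicates.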

pictilisib = compound: CS(=O)(=O)N1CCN(Cc2cc3nc(-c4cccc5[nH]ncc45)nc(N4CCOCC4)c3s2)CC1 [pictilisib]
In short: as §1

crizotinib = compound: C[C@@H](Oc1cc(-c2cnn(C3CCNCC3)c2)cnc1N)c1c(Cl)ccc(F)c1Cl [crizotinib]
In short: as §1

[1] = compound: C[C@H](C1=CC=C(C=C1)C(=O)NC2=C3C=CNC3=NC=C2)N
In short: as §1

duvelisib = compound: C[C@H](Nc1ncnc2nc[nH]c12)c1cc2cccc(Cl)c2c(=O)n1-c1ccccc1 [duvelisib]
In short: as §1

gandotinib = compound: Cc1cc(Nc2cc(CN3CCOCC3)c3nc(C)c(Cc4ccc(Cl)cc4F)n3n2)n[nH]1 [gandotinib]
In short: as §1

tozasertib = compound: Cc1cc(Nc2cc(N3CCN(C)CC3)nc(Sc3ccc(NC(=O)C4CC4)cc3)n2)n[nH]1 [tozasertib]
In short: as §1

doramapimod = compound: Cc1ccc(-n2nc(C(C)(C)C)cc2NC(=O)Nc2ccc(OCCN3CCOCC3)c3ccccc23)cc1 [doramapimod]
In short: as §1

bafetinib = compound: Cc1ccc(NC(=O)c2ccc(CN3CC[C@H](N(C)C)C3)c(C(F)(F)F)c2)cc1Nc1nccc(-c2cncnc2)n1 [bafetinib]
In short: as §1

[2] = compound: Cc1cccc(CC(=O)N2CCc3c2ccc(-c2cn(C)c4ncnc(N)c24)c3F)n1
In short: as §1

Target	log2 fold change (lapatinib)	log2 fold change (pictilisib)	log2 fold change (crizotinib)	log2 fold change [1]	log2 fold change (duvelisib)	log2 fold change (gandotinib)	log2 fold change (tozasertib)	log2 fold change (doramapimod)	log2 fold change (bafetinib)	log2 fold change [2]
MRPL13 (UniProt Q9BYD1)	inactive: 0.046	inactive: -0.018	inactive: -0.064	inactive: -0.051	inactive: -0.01	inactive: -0.022	inactive: 0.033	inactive: 0.049	inactive: -0.066	inactive: 0.041
MIOS (UniProt Q9NXC5)	inactive: 0.002	inactive: -0.011	inactive: -0.018	inactive: -0.015	inactive: 0.012	inactive: 0.023	inactive: 0.028	inactive: 0.034	inactive: -0.027	inactive: 0.055
MLLT11 (UniProt Q13015)	inactive: 0.051	inactive: 0.237	inactive: 0	inactive: 0.025	inactive: 0.002	inactive: 0.329	inactive: 0.087	active: 0.447	inactive: -0.017	inactive: 0.084
MORF4L2 (UniProt Q15014)	inactive: 0.017	inactive: -0.014	inactive: 0.011	inactive: -0.029	inactive: 0.027	inactive: 0.002	inactive: 0.025	inactive: -0.051	inactive: 0.038	inactive: 0.038
MLXIP (UniProt Q9HAP2)	inactive: -0.009	inactive: -0.049	inactive: -0.023	inactive: -0.052	inactive: -0.078	inactive: -0.032	inactive: 0.019	inactive: 0.009	inactive: -0.01	inactive: 0.043
MPG (UniProt P29372)	inactive: -0.029	inactive: -0.021	inactive: 0.004	inactive: 0.031	inactive: -0.026	inactive: -0.01	inactive: 0.057	inactive: -0.028	inactive: 0.023	inactive: 0.05
MPC1 (UniProt Q9Y5U8)	inactive: 0.032	inactive: 0.074	inactive: -0.002	inactive: 0.244	inactive: -0.058	inactive: -0.128	inactive: 0.042	inactive: -0.022	inactive: 0.004	inactive: -0.26
MKNK1 (UniProt Q9BUB5)	inactive: -0.029	inactive: -0.035	inactive: -0.065	inactive: 0.039	inactive: 0.009	inactive: -0.007	inactive: -0.007	inactive: -0.021	inactive: 0.005	inactive: 0.002
MICOS13 (UniProt Q5XKP0)	inactive: -0.065	inactive: 0.023	inactive: -0.002	inactive: 0.017	inactive: 0.011	inactive: -0.082	inactive: -0.145	inactive: 0.013	inactive: -0.129	inactive: -0.016
MIPEP (UniProt Q99797)	inactive: -0.013	inactive: -0.031	inactive: 0.041	inactive: -0.004	inactive: -0.022	inactive: -0.049	inactive: 0.072	inactive: -0.059	inactive: 0.016	inactive: 0.04
MND1 (UniProt Q9BWT6)	inactive: 0.002	inactive: -0.012	inactive: 0.045	inactive: 0.094	inactive: -0.012	inactive: -0.059	inactive: 0.019	inactive: 0.017	inactive: 0.024	inactive: -0.112
MGST3 (UniProt O14880)	inactive: 0.01	inactive: -0.017	inactive: 0.004	inactive: 0.23	inactive: -0.02	inactive: -0.078	inactive: -0.035	inactive: -0.025	inactive: -0.048	inactive: -0.087
MOB4 (UniProt Q9Y3A3)	inactive: 0.009	inactive: -0.004	inactive: -0.025	inactive: 0.001	inactive: -0.027	inactive: 0.11	inactive: -0.016	inactive: 0.051	inactive: -0.036	inactive: 0.019
MGAT5 (UniProt Q09328)	inactive: 0.022	inactive: 0.066	inactive: -0.051	inactive: 0.098	inactive: 0.018	inactive: -0.106	inactive: -0.037	inactive: 0.023	inactive: 0.079	inactive: -0.112
MLLT1 (UniProt Q03111)	inactive: -0.017	inactive: 0.011	inactive: -0.024	inactive: 0.07	inactive: -0.02	inactive: 0.008	inactive: -0.037	inactive: 0.042	inactive: 0.004	inactive: 0.013
MOB3A (UniProt Q96BX8)	inactive: -0.028	inactive: -0.027	inactive: 0.045	inactive: -0.064	inactive: 0.12	inactive: 0.013	inactive: 0.02	inactive: -0.046	inactive: 0.011	inactive: 0.049
MLST8 (UniProt Q9BVC4)	inactive: -0.028	inactive: -0.073	inactive: 0.004	inactive: -0.034	inactive: -0.028	inactive: -0.055	inactive: 0.078	inactive: 0.08	inactive: -0.026	inactive: 0.032
MPRIP isoform 2 (UniProt Q6WCQ1)	inactive: -0.069	inactive: -0.034	inactive: 0.027	inactive: 0.01	inactive: -0.008	inactive: -0.018	inactive: -0.052	inactive: 0.026	inactive: -0.046	inactive: -0.014
MIPOL1 (UniProt Q8TD10)	inactive: -0.019	inactive: -0.084	inactive: -0.126	inactive: 0.184	inactive: 0.128	inactive: -0.001	inactive: -0.132	inactive: 0.409	inactive: -0.36	inactive: -0.034
MRPL12 (UniProt P52815)	inactive: 0.094	inactive: -0.019	inactive: 0.086	inactive: -0.1	inactive: 0.011	inactive: 0	inactive: 0.077	inactive: -0.031	inactive: -0.073	inactive: 0.035
MIS12 (UniProt Q9H081)	inactive: -0.037	inactive: -0.07	inactive: -0.044	inactive: 0.001	inactive: -0.003	inactive: 0.018	inactive: -0.07	inactive: 0.017	inactive: -0.037	inactive: 0.028
MRE11 isoform 3 (UniProt P49959)	inactive: 0.019	inactive: 0.01	inactive: 0.013	inactive: 0.001	inactive: -0.018	inactive: -0.018	inactive: 0.028	inactive: -0.023	inactive: 0.003	inactive: 0.018
MRNIP (UniProt Q6NTE8)	inactive: 0.033	inactive: -0.152	inactive: -0.081	inactive: -0.087	inactive: 0.029	inactive: 0.005		inactive: 0.008	inactive: -0.029	inactive: -0.095
MRI1 (UniProt Q9BV20)	inactive: -0.024	inactive: -0.014	inactive: 0.003	inactive: -0.061	inactive: 0.019	inactive: 0.047	inactive: 0.016	inactive: 0.011	inactive: -0.031	inactive: 0.044
MLEC (UniProt Q14165)	inactive: -0.017	inactive: -0.004	inactive: 0.014	inactive: 0.057	inactive: -0.019	inactive: 0.005	inactive: 0.01	inactive: -0.019	inactive: 0.004	inactive: -0.026
MPHOSPH6 (UniProt Q99547)	inactive: -0.023	inactive: 0.018	inactive: 0.025	inactive: 0.018	inactive: 0.03	inactive: -0.039	inactive: 0.032	inactive: 0.024	inactive: -0.067	inactive: 0.019
MRAS (UniProt O14807)	inactive: -0.099	inactive: 0.008	inactive: 0.038	inactive: 0.126	inactive: 0.141	inactive: -0.16	inactive: -0.048	inactive: 0.004	inactive: 0.034	inactive: -0.187

A portion from the list above, as a working copy:
Target	log2 fold change (lapatinib)	log2 fold change (pictilisib)	log2 fold change (crizotinib)	log2 fold change [1]	log2 fold change (duvelisib)	log2 fold change (gandotinib)	log2 fold change (tozasertib)	log2 fold change (doramapimod)	log2 fold change (bafetinib)	log2 fold change [2]
MORF4L2 (UniProt Q15014)	inactive: 0.017	inactive: -0.014	inactive: 0.011	inactive: -0.029	inactive: 0.027	inactive: 0.002	inactive: 0.025	inactive: -0.051	inactive: 0.038	inactive: 0.038
MLXIP (UniProt Q9HAP2)	inactive: -0.009	inactive: -0.049	inactive: -0.023	inactive: -0.052	inactive: -0.078	inactive: -0.032	inactive: 0.019	inactive: 0.009	inactive: -0.01	inactive: 0.043
